For two molecules, binding results are on record in doi:10.1101/2020.12.07.414227.

For test [1], the target named is T1, NBR1 (mouse (endogenous in BMM)) (UniProt P97432).
T1 sequence: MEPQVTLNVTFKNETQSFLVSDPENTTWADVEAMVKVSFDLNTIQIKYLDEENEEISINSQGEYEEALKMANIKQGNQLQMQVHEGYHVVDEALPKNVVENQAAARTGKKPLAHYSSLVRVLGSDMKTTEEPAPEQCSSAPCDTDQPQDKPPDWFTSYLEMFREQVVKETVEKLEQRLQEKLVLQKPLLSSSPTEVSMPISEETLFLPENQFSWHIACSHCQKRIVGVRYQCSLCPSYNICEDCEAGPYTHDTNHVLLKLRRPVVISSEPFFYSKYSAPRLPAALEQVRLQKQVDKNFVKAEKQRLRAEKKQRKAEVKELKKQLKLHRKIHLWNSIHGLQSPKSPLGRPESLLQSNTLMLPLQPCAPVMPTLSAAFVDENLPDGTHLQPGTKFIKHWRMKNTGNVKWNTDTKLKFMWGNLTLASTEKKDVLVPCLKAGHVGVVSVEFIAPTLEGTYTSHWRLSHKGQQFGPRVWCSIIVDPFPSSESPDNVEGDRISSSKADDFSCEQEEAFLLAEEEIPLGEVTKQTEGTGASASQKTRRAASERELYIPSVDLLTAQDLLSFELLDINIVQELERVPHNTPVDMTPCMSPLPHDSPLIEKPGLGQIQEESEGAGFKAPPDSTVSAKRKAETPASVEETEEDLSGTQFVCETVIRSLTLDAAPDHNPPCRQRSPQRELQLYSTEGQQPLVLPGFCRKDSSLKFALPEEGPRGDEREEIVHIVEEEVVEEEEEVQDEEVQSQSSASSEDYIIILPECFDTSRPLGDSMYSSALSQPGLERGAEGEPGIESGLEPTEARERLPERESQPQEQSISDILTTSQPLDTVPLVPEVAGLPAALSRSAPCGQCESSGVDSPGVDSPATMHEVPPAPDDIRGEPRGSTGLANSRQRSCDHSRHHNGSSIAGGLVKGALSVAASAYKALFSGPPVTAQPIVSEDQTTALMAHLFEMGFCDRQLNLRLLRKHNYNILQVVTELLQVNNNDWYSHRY
Description: co-IP.

Test [2] concerns the target T2, IL-12p35 (mouse (endogenous in BMM)) (UniProt P43431).
T2 sequence: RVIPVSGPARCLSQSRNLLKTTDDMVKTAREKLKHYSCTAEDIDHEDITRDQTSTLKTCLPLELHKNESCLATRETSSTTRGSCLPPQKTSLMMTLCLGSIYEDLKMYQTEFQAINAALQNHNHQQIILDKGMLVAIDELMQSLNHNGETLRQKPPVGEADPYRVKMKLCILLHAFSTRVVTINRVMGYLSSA
Put plainly: co-IP.

These are yes or no findings as the source states them, for the method shown. In cells and extracts the contact can be indirect. Some entries that bind do so weakly or less than the wild type.

B1: IL-12p35 (protein, UniProt P43431 23-215)
chain: RVIPVSGPARCLSQSRNLLKTTDDMVKTAREKLKHYSCTAEDIDHEDITRDQTSTLKTCLPLELHKNESCLATRETSSTTRGSCLPPQKTSLMMTLCLGSIYEDLKMYQTEFQAINAALQNHNHQQIILDKGMLVAIDELMQSLNHNGETLRQKPPVGEADPYRVKMKLCILLHAFSTRVVTINRVMGYLSSA
B1: the binding result in test [1] is reported as “binds”.

B2: IL-12p40 (protein, UniProt P43432 23-335)
chain: MWELEKDVYVVEVDWTPDAPGETVNLTCDTPEEDDITWTSDQRHGVIGSGKTLTITVKEFLDAGQYTCHKGGETLSHSHLLLHKKENGIWSTEILKNFKNKTFLKCEAPNYSGRFTCSWLVQRNMDLKFNIKSSSSSPDSRAVTCGMASLSAEKVTLDQRDYEKYSVSCQEDVTCPTAEETLPIELALEARQQNKYENYSTSFFIRDIIKPDPPKNLQMKPLKNSQVEVSWEYPDSWSTPHSYFSLKFFVRIQRKKEKMKETEEGCNQKGAFLVEKTSTEVQCKGGNVCVQAQDRYYNSSCSKWACVPCRVRS
Turning to B2, the binding result in test [1] and in test [2] was “binds” throughout.
